Results reported in US20070218463A1 (CANAG DIAGNOSTICS, published 2007).
Results are given in words; binding and its absence hold for the method and conditions named. Some binding calls cover weakened binding; strength is not graded here. Sequences can lack the tags named with a protein.

Legend:
[1] = target: T1, Cathepsin G (Biodesign Int.) (UniProt P08311); experiment: complex binding, SDS-PAGE
T1 sequence (looked up): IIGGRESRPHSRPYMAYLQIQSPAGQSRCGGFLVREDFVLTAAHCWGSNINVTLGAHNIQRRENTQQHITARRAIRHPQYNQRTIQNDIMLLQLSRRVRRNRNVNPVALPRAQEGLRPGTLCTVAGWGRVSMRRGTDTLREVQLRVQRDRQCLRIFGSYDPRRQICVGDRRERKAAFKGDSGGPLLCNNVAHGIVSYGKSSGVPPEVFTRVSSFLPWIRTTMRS

[2] = target: T1, Cathepsin G (Biodesign Int.); experiment: complex binding, SDS-PAGE (FIG. 8)
[3] = target: T1, Cathepsin G (Biodesign Int.); experiment: complex binding, 2 ug SCCA protein + 0.5 ug Cathepsin G, 37 C 30 min, SDS-PAGE

Measured: binding

B1: SCCA1/SCCA2 fusion protein (other)
chain: MNSLSEANTKFMFDLFQQFRKSKENNIFYSPISITSALGMVLLGAKDNTAQQIKKVLHFDQVTENTTGKAATYHVDRSGNVHHQFQKLLTEFNKSTDAYELKIANKLFGEKTYLFLQEYLDAIKKFYQTSVESVDFANAPEESRKKINSWVESQTNEKIKNLIPEGNIGSNTTLVLVNAIYFKGQWEKKFNKEDTKEEKFWPNKNTYKSIQMMRQYTSFHFASLEDVQAKVLEIPYKGKDLSMIVLLPNEIDGLQKLEEKLTAEKLMEWTSLQNMRETCVDLHLPRFKMEESYDLKDTLRTMGMVNIFNGDADLSGMTWSHGLSVSKVLHKAFVEVTEEGVEAAAATAVVVVELSSPSTNEEFCCNHPFLFFIRQNKTNSILFYGRFSSP
notes: Recombinant serpin fusion (exons 2-7 of SCCA1 fused to exon 8 of SCCA2); also called SCCA1/A2; SCCA1/A2 fusion protein
binds: all assays above
